For one assay, the target named is T1, MYC-SPRYD3 (UniProt Q8NCJ5).
T1 sequence: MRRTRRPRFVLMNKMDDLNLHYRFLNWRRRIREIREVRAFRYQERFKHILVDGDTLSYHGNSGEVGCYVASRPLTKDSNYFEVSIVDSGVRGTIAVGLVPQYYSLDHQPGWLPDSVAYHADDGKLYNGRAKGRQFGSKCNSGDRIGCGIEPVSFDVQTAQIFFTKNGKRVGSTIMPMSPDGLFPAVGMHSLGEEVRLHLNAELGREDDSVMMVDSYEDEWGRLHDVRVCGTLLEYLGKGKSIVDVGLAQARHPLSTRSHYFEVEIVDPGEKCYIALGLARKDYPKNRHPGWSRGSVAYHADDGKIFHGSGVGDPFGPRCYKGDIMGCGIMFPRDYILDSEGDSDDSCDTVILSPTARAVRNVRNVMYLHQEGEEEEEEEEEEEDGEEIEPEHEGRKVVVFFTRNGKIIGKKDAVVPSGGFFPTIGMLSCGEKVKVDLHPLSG
Put plainly: co-IP; two consecutive immunoprecipitations from co-transfected HEK293T WT cells (24 h, 10 μM MG132 5 h before harvest): Flag-IP, elution, then anti-MYC antibody with G-sepharose; Western blot.

Sequences of proteins named here, by UniProt entry; tags and fusion partners are left off. A change or cut given only in a name is not applied to a line headed by its entry.
UniProt O75592: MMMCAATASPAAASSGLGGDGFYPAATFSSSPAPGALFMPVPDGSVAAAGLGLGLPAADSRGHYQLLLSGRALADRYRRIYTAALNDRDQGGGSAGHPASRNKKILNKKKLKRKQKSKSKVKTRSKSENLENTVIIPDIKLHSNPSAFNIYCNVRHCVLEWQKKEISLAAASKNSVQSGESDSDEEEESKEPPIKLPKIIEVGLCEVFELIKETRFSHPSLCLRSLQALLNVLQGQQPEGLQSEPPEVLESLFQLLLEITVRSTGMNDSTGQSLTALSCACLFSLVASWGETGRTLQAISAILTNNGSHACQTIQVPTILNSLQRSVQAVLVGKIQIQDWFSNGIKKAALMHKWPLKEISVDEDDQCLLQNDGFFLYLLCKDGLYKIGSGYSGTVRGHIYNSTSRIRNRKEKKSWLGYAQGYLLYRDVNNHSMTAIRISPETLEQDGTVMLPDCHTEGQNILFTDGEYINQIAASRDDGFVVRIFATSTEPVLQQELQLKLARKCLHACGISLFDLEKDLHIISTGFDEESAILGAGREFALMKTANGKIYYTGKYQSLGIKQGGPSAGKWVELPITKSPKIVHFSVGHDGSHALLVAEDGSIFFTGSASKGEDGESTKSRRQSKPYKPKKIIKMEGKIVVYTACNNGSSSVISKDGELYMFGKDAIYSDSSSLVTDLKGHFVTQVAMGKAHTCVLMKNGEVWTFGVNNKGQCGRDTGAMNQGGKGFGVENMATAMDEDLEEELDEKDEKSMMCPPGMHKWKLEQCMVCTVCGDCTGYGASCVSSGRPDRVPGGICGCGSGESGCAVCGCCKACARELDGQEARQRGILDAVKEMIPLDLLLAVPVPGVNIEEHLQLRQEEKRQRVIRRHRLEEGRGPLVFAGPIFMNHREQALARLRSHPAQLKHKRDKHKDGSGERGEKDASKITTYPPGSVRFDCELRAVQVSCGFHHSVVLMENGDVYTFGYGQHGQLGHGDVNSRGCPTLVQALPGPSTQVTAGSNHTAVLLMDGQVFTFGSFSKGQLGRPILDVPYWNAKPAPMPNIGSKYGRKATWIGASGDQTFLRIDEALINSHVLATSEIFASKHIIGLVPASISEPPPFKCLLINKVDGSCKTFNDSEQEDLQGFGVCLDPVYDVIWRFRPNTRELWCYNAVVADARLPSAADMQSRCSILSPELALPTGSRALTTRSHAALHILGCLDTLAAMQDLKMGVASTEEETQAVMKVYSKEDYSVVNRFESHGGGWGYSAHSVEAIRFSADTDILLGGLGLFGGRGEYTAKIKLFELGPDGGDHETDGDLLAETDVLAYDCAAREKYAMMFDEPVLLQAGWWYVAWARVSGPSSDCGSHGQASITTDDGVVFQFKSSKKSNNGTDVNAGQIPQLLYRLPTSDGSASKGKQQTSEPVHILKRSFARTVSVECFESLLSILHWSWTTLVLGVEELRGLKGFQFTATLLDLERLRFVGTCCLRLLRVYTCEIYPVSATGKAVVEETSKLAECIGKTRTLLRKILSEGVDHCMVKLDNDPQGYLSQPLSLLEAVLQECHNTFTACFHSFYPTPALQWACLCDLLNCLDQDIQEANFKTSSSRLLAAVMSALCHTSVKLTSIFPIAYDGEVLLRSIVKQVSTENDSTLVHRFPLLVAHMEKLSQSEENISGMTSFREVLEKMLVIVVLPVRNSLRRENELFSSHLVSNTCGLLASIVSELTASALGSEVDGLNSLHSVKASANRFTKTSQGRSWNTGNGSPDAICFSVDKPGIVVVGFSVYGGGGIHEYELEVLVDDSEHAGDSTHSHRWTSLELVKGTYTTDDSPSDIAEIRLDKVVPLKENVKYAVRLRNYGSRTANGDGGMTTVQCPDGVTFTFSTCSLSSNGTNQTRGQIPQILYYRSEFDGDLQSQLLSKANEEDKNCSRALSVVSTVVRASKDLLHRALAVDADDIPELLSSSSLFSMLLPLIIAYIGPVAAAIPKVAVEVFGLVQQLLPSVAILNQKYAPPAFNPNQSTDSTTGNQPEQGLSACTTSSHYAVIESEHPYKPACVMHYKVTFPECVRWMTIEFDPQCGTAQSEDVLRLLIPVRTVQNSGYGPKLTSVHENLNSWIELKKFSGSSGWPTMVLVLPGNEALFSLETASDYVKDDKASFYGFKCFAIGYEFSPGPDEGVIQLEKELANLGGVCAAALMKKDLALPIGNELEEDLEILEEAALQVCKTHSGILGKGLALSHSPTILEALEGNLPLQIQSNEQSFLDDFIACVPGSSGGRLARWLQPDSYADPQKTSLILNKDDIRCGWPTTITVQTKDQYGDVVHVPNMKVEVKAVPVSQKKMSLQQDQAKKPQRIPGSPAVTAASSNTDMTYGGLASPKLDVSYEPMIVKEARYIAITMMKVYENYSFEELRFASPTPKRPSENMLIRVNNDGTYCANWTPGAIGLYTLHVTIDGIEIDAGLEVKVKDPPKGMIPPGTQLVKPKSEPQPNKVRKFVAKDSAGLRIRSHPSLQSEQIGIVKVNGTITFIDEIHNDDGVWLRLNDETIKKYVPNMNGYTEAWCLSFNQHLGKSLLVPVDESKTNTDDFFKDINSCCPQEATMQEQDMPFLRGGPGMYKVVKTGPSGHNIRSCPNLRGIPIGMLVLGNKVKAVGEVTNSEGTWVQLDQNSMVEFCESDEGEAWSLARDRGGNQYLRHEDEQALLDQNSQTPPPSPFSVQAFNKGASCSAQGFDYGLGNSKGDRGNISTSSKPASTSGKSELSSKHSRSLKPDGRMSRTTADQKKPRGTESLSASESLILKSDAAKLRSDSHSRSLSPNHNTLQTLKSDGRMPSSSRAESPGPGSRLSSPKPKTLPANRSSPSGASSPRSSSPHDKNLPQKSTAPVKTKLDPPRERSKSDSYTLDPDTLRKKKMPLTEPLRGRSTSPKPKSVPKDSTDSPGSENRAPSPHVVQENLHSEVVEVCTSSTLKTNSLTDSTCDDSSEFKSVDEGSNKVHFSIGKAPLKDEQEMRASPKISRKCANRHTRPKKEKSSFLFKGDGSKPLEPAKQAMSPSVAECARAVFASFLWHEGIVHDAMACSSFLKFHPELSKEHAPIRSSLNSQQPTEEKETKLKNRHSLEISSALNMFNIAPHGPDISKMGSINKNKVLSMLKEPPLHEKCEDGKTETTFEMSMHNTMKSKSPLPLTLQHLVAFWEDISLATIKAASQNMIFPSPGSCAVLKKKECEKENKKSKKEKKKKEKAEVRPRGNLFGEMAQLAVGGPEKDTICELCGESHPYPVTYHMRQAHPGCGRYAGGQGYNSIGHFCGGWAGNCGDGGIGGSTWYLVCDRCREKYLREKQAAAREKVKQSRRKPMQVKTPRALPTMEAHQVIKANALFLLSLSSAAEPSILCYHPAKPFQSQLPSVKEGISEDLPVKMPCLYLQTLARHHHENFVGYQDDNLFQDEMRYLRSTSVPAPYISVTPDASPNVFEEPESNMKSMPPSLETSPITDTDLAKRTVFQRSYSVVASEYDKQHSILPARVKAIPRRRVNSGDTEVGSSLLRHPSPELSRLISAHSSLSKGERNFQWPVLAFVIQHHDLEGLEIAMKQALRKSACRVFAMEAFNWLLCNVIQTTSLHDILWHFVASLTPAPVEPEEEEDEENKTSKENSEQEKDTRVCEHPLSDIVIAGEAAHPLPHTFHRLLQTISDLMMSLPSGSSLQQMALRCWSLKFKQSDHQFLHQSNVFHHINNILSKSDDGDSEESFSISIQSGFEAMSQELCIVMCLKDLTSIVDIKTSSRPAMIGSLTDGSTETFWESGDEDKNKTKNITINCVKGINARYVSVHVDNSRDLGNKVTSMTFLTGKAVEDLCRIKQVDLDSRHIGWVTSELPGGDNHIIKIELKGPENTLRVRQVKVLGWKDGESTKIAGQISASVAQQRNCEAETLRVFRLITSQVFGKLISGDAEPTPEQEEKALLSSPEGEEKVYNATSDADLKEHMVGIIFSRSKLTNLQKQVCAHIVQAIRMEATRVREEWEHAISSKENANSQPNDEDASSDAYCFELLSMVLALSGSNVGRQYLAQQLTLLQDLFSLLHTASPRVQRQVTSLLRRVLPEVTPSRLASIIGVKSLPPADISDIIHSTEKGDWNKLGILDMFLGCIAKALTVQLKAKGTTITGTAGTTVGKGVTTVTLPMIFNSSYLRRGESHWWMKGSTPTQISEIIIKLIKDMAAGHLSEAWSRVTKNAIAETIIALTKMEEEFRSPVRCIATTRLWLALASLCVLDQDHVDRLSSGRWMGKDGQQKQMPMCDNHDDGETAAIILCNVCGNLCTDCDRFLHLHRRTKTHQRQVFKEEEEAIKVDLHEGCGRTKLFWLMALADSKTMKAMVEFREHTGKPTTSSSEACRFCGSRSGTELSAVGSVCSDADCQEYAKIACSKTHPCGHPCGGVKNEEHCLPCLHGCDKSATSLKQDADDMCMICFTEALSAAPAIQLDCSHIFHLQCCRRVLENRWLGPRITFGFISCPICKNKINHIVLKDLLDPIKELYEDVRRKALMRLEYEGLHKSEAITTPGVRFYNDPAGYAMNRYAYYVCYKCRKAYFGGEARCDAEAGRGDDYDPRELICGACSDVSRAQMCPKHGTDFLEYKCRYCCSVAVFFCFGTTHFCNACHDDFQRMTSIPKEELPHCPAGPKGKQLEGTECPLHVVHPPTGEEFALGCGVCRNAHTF
UniProt P51784: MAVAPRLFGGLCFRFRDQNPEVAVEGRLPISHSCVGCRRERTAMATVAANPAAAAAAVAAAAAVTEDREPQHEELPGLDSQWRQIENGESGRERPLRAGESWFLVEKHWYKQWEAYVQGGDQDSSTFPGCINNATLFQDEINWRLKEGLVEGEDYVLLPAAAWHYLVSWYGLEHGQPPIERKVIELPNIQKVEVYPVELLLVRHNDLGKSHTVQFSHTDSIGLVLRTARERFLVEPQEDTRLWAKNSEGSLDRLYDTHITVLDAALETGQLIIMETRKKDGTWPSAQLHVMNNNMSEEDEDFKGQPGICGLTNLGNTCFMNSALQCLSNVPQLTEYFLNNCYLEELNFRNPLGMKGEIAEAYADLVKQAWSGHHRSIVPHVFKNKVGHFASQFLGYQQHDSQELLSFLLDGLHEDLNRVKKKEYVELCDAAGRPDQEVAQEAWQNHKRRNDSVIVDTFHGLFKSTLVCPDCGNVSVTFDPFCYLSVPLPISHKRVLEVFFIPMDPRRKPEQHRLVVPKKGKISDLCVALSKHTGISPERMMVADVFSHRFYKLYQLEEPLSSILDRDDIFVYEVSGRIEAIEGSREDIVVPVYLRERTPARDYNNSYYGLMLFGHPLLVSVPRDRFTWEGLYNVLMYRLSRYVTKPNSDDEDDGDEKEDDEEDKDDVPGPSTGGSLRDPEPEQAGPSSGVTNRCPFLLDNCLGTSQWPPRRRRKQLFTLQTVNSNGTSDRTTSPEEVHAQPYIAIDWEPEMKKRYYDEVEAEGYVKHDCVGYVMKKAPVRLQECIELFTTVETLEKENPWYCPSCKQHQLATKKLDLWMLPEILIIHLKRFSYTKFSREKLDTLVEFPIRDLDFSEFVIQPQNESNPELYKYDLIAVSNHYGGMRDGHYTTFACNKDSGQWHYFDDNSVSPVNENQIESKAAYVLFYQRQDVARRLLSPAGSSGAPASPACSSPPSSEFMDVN

In a further assay the target is T2, Flag-FBXO45 (UniProt P0C2W1).
T2 sequence: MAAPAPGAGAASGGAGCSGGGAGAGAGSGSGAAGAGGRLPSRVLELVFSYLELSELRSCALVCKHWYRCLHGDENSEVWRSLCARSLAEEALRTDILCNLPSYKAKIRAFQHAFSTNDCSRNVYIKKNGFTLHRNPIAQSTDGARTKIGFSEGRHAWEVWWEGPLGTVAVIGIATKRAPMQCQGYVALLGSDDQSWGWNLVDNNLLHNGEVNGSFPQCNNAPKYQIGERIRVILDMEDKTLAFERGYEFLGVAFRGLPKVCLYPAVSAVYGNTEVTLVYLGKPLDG
The assay can be described thus: co-IP; co-transfected HEK293T WT (also ΔFBXO45) cells, 24 h or 48 h; NP-40 buffer lysate; Flag-M2 beads at 4 °C overnight; elution with 3x Flag peptide; Western blot.

In another assay the target is T3, Flag-SPRYD3 (UniProt Q8NCJ5).
T3 sequence: T1 sequence
The assay is described as above.

In assay [1] the target is T4, endogenous SPRYD3 (human (endogenous in HEK293T)) (UniProt Q8NCJ5).
T4 sequence: T1 sequence
Put plainly: co-IP; endogenous proteins; HEK293T WT lysates (10 μM MG132 5 h before harvest) with anti-SPRYD3 or anti-IgG antibody overnight, protein A sepharose; washed with NP-40 buffer adjusted to 400 mM NaCl; Western blot.

Assay [2] concerns the target MYCBP2 (construct of Fig. S1G not shown) (UniProt O75592). The assay can be described thus: co-IP; mapping experiments of Fig. S1E, S1F, S1G and S3 with Flag-tagged MYCBP2 fragments and SPRYD3 deletion mutants; legends in the supplement, not shown.

No constants are given. Whether binding was seen depends on the method and setting. Binding seen in cells or lysates may run through a third protein. Some results given as binding are weak or reduced against the parent protein; the word gives no strength. For some assays here: Sequences can lack the tags named with a protein.

For “GFP-USP11 (from UniProt P51784 1-963) (enzyme)”, the binding result with MYC-SPRYD3 was “binds”.
Take “MYC-USP11 (from UniProt P51784 1-963) (enzyme)”: the binding entry with Flag-FBXO45 and in the assay with Flag-SPRYD3 was “binds” in each case.
For “endogenous MYCBP2 (from UniProt O75592 1-4678)”, in assay [1], the binding entry is “binds”.

B1: MBP-SPRYD3 (natural protein, UniProt Q8NCJ5 1-442, looked up)
chain: T1 sequence
notes: SPRYD3; pMal-c2-MBP-SPRYD3; also called recombinant SPRYD3; source: E. coli Rosetta (DE3), purified (Amylose resin)
Regarding B1, the binding entry in assay [2] is listed as “binds”.

The record behind these values is paper PMC12664034, “The E3 ubiquitin ligase SPRYD3-MYCBP2(PAM) regulates mitotic cell fate and ubiquitination of USP11 to control spindle assembly” (The Journal of Biological Chemistry, 2025).
